{"source": "patent US20080160065A1", "about": "(priority 2006, published 2008)", "origin": "cited, not measured here", "key": {"[1]": {"tested_on": "most strains of Bacteriodes"}, "[2]": {"tested_on": "clindamycin sensitive B. fragilis"}}, "note": "At least one structure is not confirmed: it was looked up by name or label, or the drawing left a doubt."}
{"smiles": "CCC[C@@H]1C[C@@H](C(=O)N[C@@H]([C@H]2O[C@H](SC)[C@H](O)[C@@H](O)[C@H]2O)[C@H](C)Cl)N(C)C1", "note": "[clindamycin]", "values": [{"measurement": "MIC", "setting": "[1]", "result": "≤ 2", "unit": "µg/mL"}, {"measurement": "MIC", "setting": "[2]", "result": 2, "unit": "µg/mL"}]}
